{
  "sequences": {"note": "Chains of the proteins cited; added tags and fusions are not shown. Residues count along the entry.", "UniProt O43683, 704-1085 limits assumed": "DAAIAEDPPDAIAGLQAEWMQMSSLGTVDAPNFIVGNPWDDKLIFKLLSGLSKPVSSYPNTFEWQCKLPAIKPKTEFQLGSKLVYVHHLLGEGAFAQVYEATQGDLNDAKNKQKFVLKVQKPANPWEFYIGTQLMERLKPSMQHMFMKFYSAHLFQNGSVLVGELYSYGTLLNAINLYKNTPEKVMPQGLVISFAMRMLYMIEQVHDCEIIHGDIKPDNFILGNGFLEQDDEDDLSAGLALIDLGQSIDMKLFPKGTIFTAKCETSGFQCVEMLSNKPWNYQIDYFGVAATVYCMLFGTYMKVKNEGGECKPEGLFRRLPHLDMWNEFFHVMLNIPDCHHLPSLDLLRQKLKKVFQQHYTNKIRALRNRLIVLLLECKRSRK"},
  "source": "patent US10428044B2",
  "about": "“3-amino-1,5,6,7-tetrahydro-4H-indol-4-ones” (Bayer Pharma Aktiengesellschaft, priority 2014, dated 2019)",
  "biological_target": "(recombinant) catalytic domain of human Bub1 (amino acids 704-1085) (Homo sapiens (Human), UniProt O43683)",
  "assay": "Bub1 kinase assay (TR-FRET)",
  "details": "read-out: Biological Assay: Bub1 kinase assay median IC50, ATP 10 μM final, peptide substrate 1 μM final, 60 min at 22° C.",
  "note": "The match of structure and compound is tentative.",
  "data": [
    {"smiles": "O=C(COCc1cccnc1)Nc1cc(-c2[nH]c3c(c2Nc2ccccc2)C(=O)CCC3)ccn1", "values": [
      {"measurement": "IC50", "result": 5.28, "unit": "nM"}
    ]}
  ]
}
